This continues a long series; more values of the same kind are listed elsewhere.
Tested on: oral mucositis induced by fractionated radiation (eight doses of 7.5 Gy, left buccal cheek pouch)
Test: Oral mucositis induced by fractionated radiation in hamsters, mucositis scoring (Example 3, SCI-03)
Format: in vivo, Syrian Golden Hamsters
Parameters: key: 0: Pouch completely healthy. No erythema or vasodilation.; 1: Light to severe erythema and vasodilation. No erosion of mucosa.; 2: Severe erythema and vasodilation. Erosion of superficial aspects of mucosa leaving denuded areas, but no frank ulceration. Decreased stippling of mucosa.; 3: Formation of off-white ulcers in one or more places. Ulcers may have a yellow/gray due to pseudomembrane. Cumulative size of ulcers should equal about ¼ of the pouch. Severe erythema and vasodilation.; 4: Cumulative seize of ulcers should equal about ½ of the pouch. Loss of pliability. Severe erythema and vasodilation.; 5: Virtually all of pouch is ulcerated. Loss of pliability (pouch can only partially be extracted from mouth)
Source text: The fractionated radiation model in hamsters, developed by the Principal Investigator, has proven to be an accurate, efficient and cost-effective technique to provide a preliminary evaluation of anti-mucositis compounds. In this model, hamsters receive 8 doses of 7.5 Gy to the left cheek pouch on days 0, 1, 2, 3, […], rather than the single dose of 40 Gy on day 0 that is used in acute radiation studies. The rationale for using this scheduling for the radiation is that it more closely resembles the clinical courses of radiotherapy given to cancer patients. The course of mucositis in this model is well defined and results in peak mucositis scores approximately 14-16 days following radiation. Mortality (generally from the side effects of anesthesia) in the fractionated radiation model is slightly higher than that seen in the acute radiation model and group sizes are increased (to 10 per group) to allow for this.
(§1) Forty (40) male Syrian Golden Hamsters were given eight doses of radiation of 7.5 Gy each directed to their left buccal cheek pouch on days 0, 1, 2, 3, 6, 7, 8 and 9. This was accomplished by anesthetizing the animals and everting the left buccal pouch, while protecting the rest of the animal's bodies with a lead shield. Test materials were given by sub-cutaneous injection once daily as detailed in Table 9. Mucositis was evaluated clinically starting on day 7, and continuing on alternate days until day 35. Test articles were given as outlined Table 9, Groups 1 and 2 were dosed from Day −1 to Day 29, Group 3 was dosed on the days of radiation only, Group 4 was dosed on the days between Day −15 and Day 29 on which no radiation is given (Day −1, Day 4, Day 5 and Day 10 to Day 29).
The effect on mucositis of each drug treatment compared to placebo was assessed according to the following parameters:
On each evaluation day, the number of animals with a blinded mucositis score of ≧3 in each drug treatment group was compared to the control group. Differences were compared on a cumulative basis and statistical significance was determined by chi-square analysis. Efficacy, in this analysis, is defined by a significant reduction in the number of days that a group of animals had ulcerations (scores ≧3) when compared to the control group.
For each evaluation day the scores of the control group were compared to those of the treated groups using non-parametric rank sum analysis. Treatment success was considered as a statistically significant lowering of scores in the treated group on 2 or more days from day 6 to day 28.
as §1, with “daily at 8:00 am” for “daily”, “9. […]” for “9. Mucositis was evaluated clinically starting on day 7, and continuing on alternate days until day 35.”, “2 was” for “2 were”, “radiation only (days 0-3 and days 6-10),” for “radiation only,”, “Day −1” for “Day −15”, “Day 4 to” for “Day 4,”
Radiation was generated with a Philips 160 kVp (kilovolt potential) (18.75-ma) X-ray source at a focal distance of 30 cm, with a 3.0 mm hardened Al filtration system. Irradiation was targeted to the left buccal pouch mucosa at a rate of 3.32 Gy/minute. […] Using this calibration, the energy received by each animal at each radiation dose was approximately 64.5 nC (nanoCoulombs) at each time point. Prior to irradiation, animals were anesthetized with an intraperitoneal injection of ketamine (160 mg/kg) and xylazine (8 mg/kg). The left buccal pouch was everted, fixed and isolated using a lead shield.
The mucositis score, weight change and survival were measured throughout the study as described above. […]

Measured: Mucositis score

N[C@H](CCC(=O)N[C@@H](Cc1c[nH]c2ccccc12)C(=O)O)C(=O)O [SCV-07, γ-D-glutamyl-L-tryptophan]
2: Group 2, day 11, individual animals (two score lines each) | Group 2, day 15, individual animals (two score lines each) | Group 2, day 19, individual animals (two score lines each) | Group 2, day 21, individual animals (two score lines each) | Group 3, day 9, individual animals (two score lines each) | Group 3, day 13, individual animals (two score lines each) | Group 3, day 15, individual animals (two score lines each) | Group 3, day 19, individual animals (two score lines each) | Group 3, day 21, individual animals (two score lines each) | Group 3, day 23, individual animals (two score lines each) | Group 3, day 25, individual animals (two score lines each) | Group 3, day 27, individual animals (two score lines each) | Group 3, day 31, individual animals (two score lines each) | Group 4, day 11, individual animals (two score lines each) | Group 4, day 13, individual animals (two score lines each) | Group 4, day 15, individual animals (two score lines each) | Group 4, day 17, individual animals (two score lines each) | Group 4, day 19, individual animals (two score lines each) | Group 4, day 21, individual animals (two score lines each) | Group 4, day 23, individual animals (two score lines each) | Group 4, day 25, individual animals (two score lines each) | Group 4, day 27, individual animals (two score lines each) | Group 4, day 29, individual animals (two score lines each) | Group 4, day 31, individual animals (two score lines each) | Group 4, day 33, individual animals (two score lines each)

Reference: patent publication US7906486B2, “Method of treating or preventing tissue deterioration, injury or damage due to disease of mucosa” (SciClone Pharmaceuticals, Inc., priority 2007, dated 2011)
